Measurements reported in patent US20180348220.

Tested on: MCF10A non-cancer cell surface (Homo sapiens)
Experiment: flow cytometry
Conditions: non-cancer cells, protein on the cell surface, label: Alexa488, single-stranded DNA

Sequence: GGTGGTGGTGGTTGTGGTGGTGGTGG [AS1411]
- binding result: binds

The exact form of at least one protein or probe is not confirmed. Results from cells or extracts need not show a direct contact.
